Consider two substances from publication PMC2919408.

Amino acid sequences for entries named in this document (tags omitted). A change or cut given only in a name is not applied to a line headed by its entry.
UniProt Q4FZC9: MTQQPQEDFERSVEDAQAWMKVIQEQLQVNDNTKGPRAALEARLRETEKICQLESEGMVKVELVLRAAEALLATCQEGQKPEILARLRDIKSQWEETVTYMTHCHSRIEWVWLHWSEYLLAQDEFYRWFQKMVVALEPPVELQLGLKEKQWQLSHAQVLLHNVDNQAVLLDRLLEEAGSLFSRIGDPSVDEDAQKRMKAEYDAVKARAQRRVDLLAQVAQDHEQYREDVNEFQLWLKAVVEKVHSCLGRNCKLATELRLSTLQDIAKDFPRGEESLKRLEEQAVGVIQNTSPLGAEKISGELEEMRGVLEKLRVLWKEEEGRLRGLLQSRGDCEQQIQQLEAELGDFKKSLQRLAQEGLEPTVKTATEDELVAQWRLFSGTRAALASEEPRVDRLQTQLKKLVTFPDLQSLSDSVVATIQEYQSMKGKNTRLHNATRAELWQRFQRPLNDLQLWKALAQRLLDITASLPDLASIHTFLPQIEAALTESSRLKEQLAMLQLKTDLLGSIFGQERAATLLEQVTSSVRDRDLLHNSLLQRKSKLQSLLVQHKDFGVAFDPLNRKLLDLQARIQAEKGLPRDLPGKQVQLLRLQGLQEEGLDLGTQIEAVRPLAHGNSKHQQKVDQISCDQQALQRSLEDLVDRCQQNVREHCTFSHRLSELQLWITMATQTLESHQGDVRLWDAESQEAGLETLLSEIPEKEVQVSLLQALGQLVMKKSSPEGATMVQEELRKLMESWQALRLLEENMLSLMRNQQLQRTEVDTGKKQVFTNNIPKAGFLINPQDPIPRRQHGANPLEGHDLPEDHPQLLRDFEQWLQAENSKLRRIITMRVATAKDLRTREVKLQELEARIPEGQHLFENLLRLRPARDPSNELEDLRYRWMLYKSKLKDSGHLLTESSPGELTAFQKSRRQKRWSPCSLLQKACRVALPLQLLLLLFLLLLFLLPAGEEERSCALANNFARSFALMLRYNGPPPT

These are yes or no findings as the source states them, for the method shown. In cells and extracts the contact can be indirect. A result given as binding can be weak or reduced; the word gives no strength. Tags and fused reporters may be left off the sequences shown.

In test [1] the target is T1, Myc-tagged full-length murine Sun3 (Sun3FL) (mouse) (UniProt Q5SS91).
T1 sequence: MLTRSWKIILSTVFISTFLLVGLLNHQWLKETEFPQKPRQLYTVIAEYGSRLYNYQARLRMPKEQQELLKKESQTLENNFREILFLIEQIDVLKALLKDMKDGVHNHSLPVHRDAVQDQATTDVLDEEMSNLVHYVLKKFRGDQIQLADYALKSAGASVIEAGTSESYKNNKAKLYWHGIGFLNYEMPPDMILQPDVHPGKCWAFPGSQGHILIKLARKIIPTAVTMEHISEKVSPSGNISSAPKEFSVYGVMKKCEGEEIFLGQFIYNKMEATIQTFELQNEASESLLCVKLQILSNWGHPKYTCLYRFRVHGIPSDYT
Description: co-IP; HeLa cells transiently co-transfected with Myc-SUN and EGFP-nesprin constructs, lysed in RIPA buffer 24 h after transfection; immunoprecipitation with anti-myc mAb overnight at 4°C, Dynabeads Protein G, blot with anti-EGFP; unspecific mouse IgG as control.

Test [2] addresses T2, Myc-tagged murine Sun1 amino acids 501-913 (Sun1TM+Lum) (mouse) (UniProt Q9D666).
T2 sequence: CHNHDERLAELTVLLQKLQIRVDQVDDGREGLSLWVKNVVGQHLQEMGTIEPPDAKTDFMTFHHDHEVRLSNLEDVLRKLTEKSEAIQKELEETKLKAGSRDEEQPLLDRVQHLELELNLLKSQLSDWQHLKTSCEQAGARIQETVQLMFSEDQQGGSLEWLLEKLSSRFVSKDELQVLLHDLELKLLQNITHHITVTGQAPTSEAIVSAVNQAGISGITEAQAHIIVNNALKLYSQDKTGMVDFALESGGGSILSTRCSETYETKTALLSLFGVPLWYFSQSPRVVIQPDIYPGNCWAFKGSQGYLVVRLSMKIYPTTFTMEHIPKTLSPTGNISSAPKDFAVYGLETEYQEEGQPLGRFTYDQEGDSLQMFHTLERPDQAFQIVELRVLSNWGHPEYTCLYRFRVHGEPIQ
The test is described as above.

Take “EGFP-Nesprin1TM+KASH (74 C-terminal amino acids of murine Nesprin1) (from UniProt Q6ZWR6) (domain or fragment)”: in test [1], the binding entry was “binds”.

As for “EGFP-Nesprin3TM+KASH (67 C-terminal amino acids of Nesprin3) (from UniProt Q4FZC9) (domain or fragment)”, the binding entry in test [2] and in test [1] was “binds” each time.
